Measurements as given in paper PMC11673421.

Chains of the proteins cited; added tags and fusions are not shown. Residues count along the entry.
UniProt Q9NXA8, residues 37-310: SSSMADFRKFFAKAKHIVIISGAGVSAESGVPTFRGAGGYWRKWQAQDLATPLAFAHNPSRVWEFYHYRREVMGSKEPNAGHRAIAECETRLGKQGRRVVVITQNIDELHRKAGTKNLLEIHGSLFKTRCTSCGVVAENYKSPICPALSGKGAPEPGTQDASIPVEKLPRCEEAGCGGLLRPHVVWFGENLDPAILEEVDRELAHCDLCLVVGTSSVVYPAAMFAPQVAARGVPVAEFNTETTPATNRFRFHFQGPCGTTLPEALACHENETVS

Molecular target: recombinant 6His tagged SIRT5 (human sirtuin-5) (human) (UniProt Q9NXA8)
Assay: affinity purification with mass spectrometry; 5 ug recombinant 6His-SIRT5 added to pre-cleared SIRT5KO mouse liver lysate in RIPA buffer, 37 C for 30 min; polyHis-antibody agarose overnight at 4 C; 4 washes with RIPA; SDS-PAGE bands excised and identified by mass spectrometry; only the target purified

binding	Binder
binds	ATP-binding cassette sub-family D member 3 (ABCD3) (protein, UniProt P55096 1-659) MAAFSKYLTARNTSLAGAAFLLLCLLHKRRRALGLHGKKSGKPPLQNNEKEGKKERAVVDKVFLSRLSQILKIMVPRTFCKETGYLLLIAVMLVSRTYCDVWMIQNGTLIESGIIGRSSKDFKRYLFNFIAAMPLISLVNNFLKYGLNELKLCFRVRLTRYLYEEYLQAFTYYKMGNLDNRIANPDQLLTQDVEKFCNSVVDLYSNLSKPFLDIVLYIFKLTSAIGAQGPASMMAYLLVSGLFLTRLRRPIGKMTIMEQKYEGEYRYVNSRLITNSEEIAFYNGNKREKQTIHSVFRKLVEHLHNFIFFRFSMGFIDSIIAKYVATVVGYLVVSRPFLDLAHPRHLHSTHSELLEDYYQSGRMLLRMSQALGRIVLAGREMTRLAGFTARITELMQVLKDLNHGRYERTMVSQQEKGIEGAQASPLVPGAGEIINTDNIIKFDHVPLATPNGDILIQDLSFEVRSGANVLICGPNGCGKSSLFRVLGELWPLFGGRLTKPERGKLFYVPQRPYMTLGTLRDQVIYPDGKEDQKKRGISDQVLKEYLDNVQLGHILEREGGWDSVQDWMDVLSGGEKQRMAMARLFYHKPQFAILDECTSAVSVDVEDYIYSHCRKVGITLFTVSHRKSLWKHHEYYLHMDGRGNYEFKKITEDTVEFGS
binds	Acyl-coenzyme A thioesterase 4 (ACOT4) (enzyme, UniProt Q8BWN8 1-421) MAATLSVEPTGRSCWDEPLSIAVRGLAPEQPVTLRSVLRDEKGALFRAHARYRADSHGELDLARVPALGGSFSGLEPMGLLWAMEPDRPFWRLIKRDVQTPFLVELEVLDGHEPDGGRRLARTVHERHFMAPGVRRVPVREGRVRATLFLPPGQGPFPGIIDVYGVGGGLLEYRAGLVAGHGFATLALAFYDFEDLPKELNVIEVDYFEEAVRYMLRHPKVKGPDIGLLGLSLGADVCLIMASFLNNVSATVSINGSAFSGNRHIKYKQTMIPPLGHDLRRMKVAFSGILDIVDIRNDAVGGCENPSMIPIEKAKGPILFVAGQDDHCWRSELYTQIASDRLQAHGKERPQVLSYPGTGHYIEPPYFPMCPASLHKIVNEAVIWGGEVKAHSKAQIDAWKQILFFFGKHLGSTHSRASCRL

Results are given in words; binding and its absence hold for the method and conditions named. In cells and extracts the contact can be indirect. These calls come from enrichment with a bait or labelling near it, and not all partners need be listed.
